Measured values as given in PMC11615386, “Phosphorylation-mediated conformational change regulates human SLFN11” (Nature Communications, 2024).
Results are given in words; binding and its absence hold for the method and conditions named.

Legend:
[1] = target: T1, SLFN11 phosphomimetic mutant S753D (human), Q7Z7L1; assay: mass photometry; 50 nM SLFN11 in 25 mM Tris pH 7.5, 2 mM MgCl2, 1 mM DTT with variable concentrations of NaCl (80 mM NaCl in Fig. 4d, e); dimer to monomers; both purified; conditions: remark: other sources report otherwise
T1 chain: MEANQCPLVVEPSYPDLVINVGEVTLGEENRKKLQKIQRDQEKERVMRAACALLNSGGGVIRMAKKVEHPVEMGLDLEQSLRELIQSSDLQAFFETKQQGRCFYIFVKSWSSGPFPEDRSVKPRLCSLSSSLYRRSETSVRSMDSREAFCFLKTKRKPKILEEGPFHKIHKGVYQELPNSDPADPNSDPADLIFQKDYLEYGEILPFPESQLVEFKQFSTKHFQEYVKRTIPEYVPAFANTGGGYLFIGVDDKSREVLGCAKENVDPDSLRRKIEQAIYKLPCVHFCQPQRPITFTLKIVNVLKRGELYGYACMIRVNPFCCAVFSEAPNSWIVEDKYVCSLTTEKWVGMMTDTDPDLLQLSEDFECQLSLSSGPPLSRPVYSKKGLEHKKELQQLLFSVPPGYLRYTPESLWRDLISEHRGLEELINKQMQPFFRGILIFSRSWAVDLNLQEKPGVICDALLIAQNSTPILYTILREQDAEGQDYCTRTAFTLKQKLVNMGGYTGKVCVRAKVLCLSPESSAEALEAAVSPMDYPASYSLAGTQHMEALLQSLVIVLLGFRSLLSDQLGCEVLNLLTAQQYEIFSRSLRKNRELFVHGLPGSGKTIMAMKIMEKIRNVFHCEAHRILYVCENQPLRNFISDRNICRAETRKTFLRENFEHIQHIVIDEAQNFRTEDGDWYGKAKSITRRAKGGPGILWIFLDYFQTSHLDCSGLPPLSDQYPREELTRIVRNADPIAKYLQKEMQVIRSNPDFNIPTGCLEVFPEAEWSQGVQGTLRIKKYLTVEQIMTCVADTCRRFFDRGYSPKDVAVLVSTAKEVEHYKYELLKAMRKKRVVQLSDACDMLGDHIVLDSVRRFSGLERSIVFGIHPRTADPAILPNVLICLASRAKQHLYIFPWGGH

[2] = target: T1, SLFN11 phosphomimetic mutant S753D …; assay: cryo-EM structure; 4 μM SLFN11^S753D with 1 mM ATP; 25 mM Tris-HCl pH 7.5, 2 mM MgCl2, 1 mM DTT; 10 min on ice; data recorded at a tilt angle of 25°; both purified; conditions: remark: other sources report otherwise

- binding [1]: no binding (tested: 50 nM)
- binding [2]: no binding (tested: 4 μM)
B1: SLFN11 phosphomimetic mutant S753D, Q7Z7L1 1-901 (enzyme)
chain: T1 chain
